This passage reports cell number change and AC50 results from PubChem BioAssay AID2685 (National Center for Advancing Translational Sciences (NCATS), 2010).

What is called AC50 is the concentration at which the activity in the assay is half-maximal.

The other results are listed elsewhere or left out. Shown are side measurements of this screen, not its main read-out; they come without a call. Compounds called inactive in the main read-out are mostly missing here. Words in brackets tell the shape of the fitted curve; partial curves, single points and poor fits give uncertain potencies.

The nature of the test: qHTS Assay for Lipid Storage Modulators in Drosophila S3 Cells.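 As to cell number change: cells counted by Cell Tracker Red CMTPX staining in the red channel.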 The settings on record: BODIPY lipid droplet fluorescence, 18-24 h; for cell number change: measured here: cell count max response, cells fed with added oleic acid. In short, it runs like this: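 Laser-scanning cytometry quantifies lipid droplet accumulation (500–530 nm total intensity; droplet/cell object ratio) in oleic acid-fed (400 uM added) Drosophila S3 cells treated with a concentration series. 20 uM Triacsin C defined 100% inhibition.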
Background: Quantitative high-throughput screening tests each substance at several concentrations.

Where [1] appears, read: measured here: lipid fluorescence (Fed channel) AC50, cells fed with added oleic acid.
The mark [2] stands for this setting: measured here: cell number channel AC50, cells fed with added oleic acid.

Regarding `Cn1nc(-c2ccc(Cl)cc2)c2cc(C(=O)NC3CC3)sc21`, the cell number change worked out at 6.6%. Also, the AC50 under setting [1] was 29.1 µM [falling, single point].

Consider `CC(C)C(NC(=O)C1CCCCC1)C(=O)Nc1ccncc1` (centres undefined), for which the cell number change was found to be 49.9%. In addition, the AC50 under setting [2] is 23.1 µM [rising, partial curve]. Besides, the AC50 under setting [1] is 20.6 µM [rising, single point].

`COc1ccc(Cl)cc1NC(=O)C/C(C)=N/NC(=O)CC#N`: the AC50 under setting [1] was 6.51 µM [falling, single point].

With `CCOC(=O)C1CCCN(C(=O)/C=C/c2ccc(Cl)cc2)C1` (centres undefined), the cell number change came to 4.1%. In addition, the AC50 under setting [2] was 0.562 µM [falling, full curve, poor fit].

Regarding `O=C(/C=C/c1ccccc1)NC(NC(=S)Nc1ccc(Cl)cc1)C(Cl)(Cl)Cl` (centres undefined), the cell number change was -10.5%.

As for `CCSc1nc2ccccc2n1CC(=O)N1CCCCC1`, the cell number change turned out to be 11.7%. For the same compound, under setting [1], the AC50 is 0.00651 µM [falling, full curve, poor fit].

In the case of `Cc1cccc(OCCCCCn2ccnc2)c1C`, the cell number change was -18.4%.

Regarding `O=C(Nc1ccc(CN2CCOCC2)cc1)c1cc2ccccc2o1`, the cell number change was determined as 44.7%. The AC50 under setting [2] is 1.84 µM [rising, single point]. For the same compound, under setting [1], the AC50 is 2.06 µM [rising, partial curve].

With `CCN(CC(=O)Nc1ccccc1OC)C(=O)CN1C(=O)NC(C)(c2ccc(C)cc2)C1=O` (centres undefined), the cell number change amounted to 13.5%. In addition, under setting [1], the AC50 is 16.4 µM [falling, partial curve, poor fit].

Turning to `COCCOC(=O)C1=C(C)NC2=C(C(=O)CCC2)C1c1cc2c(cc1Br)OCO2` (centres undefined), the cell number change turned out to be 17.8%. Also, under setting [1], the AC50 is 2.59 µM [rising, full curve, poor fit].

For `O=S(=O)(Cc1cc(-c2ccc(Cl)cc2)no1)c1ccccc1`, the cell number change was found to be 154%. The AC50 under setting [2] is 0.013 µM [rising, full curve, poor fit]. Besides, under setting [1], the AC50 is 10.3 µM [rising, partial curve].

Consider `CCOC(=O)/C(=N\Nc1ccc(OC)cc1)c1csc(Nc2ccccc2)n1`, for which the cell number change is -82.5%. Further, the AC50 under setting [1] was 3.26 µM [rising, partial curve].

`COc1ccc2cc(CCNC(=O)c3ccc(S(=O)(=O)N4CCOCC4)cc3)c(=O)[nH]c2c1`: the cell number change was -34.5%. Also, the AC50 under setting [2] is 18.4 µM [falling, partial curve, poor fit].

In the case of `COc1ccc(CNC(=O)C2CCCN(C(=O)Nc3ccc(OC)cc3)C2)cc1` (centres undefined), the cell number change was 4.35%. In addition, under setting [1], the AC50 is 29.1 µM [rising, single point].

`O=C(O)CCCN=CC1=C(O)CNC1=O`: the cell number change is -37.5%. Besides, the AC50 under setting [2] is 0.00517 µM [falling, full curve, poor fit]. Further, the half-maximal activity concentration (AC50) under setting [1] was 0.231 µM [falling, full curve].

On to `O=[N+]([O-])c1ccc(F)cc1OCc1nc(-c2cccs2)no1`, for which the cell number change was found to be 22.1%. In addition, the AC50 under setting [1] was 3.26 µM [rising, partial curve].

Regarding `Cn1c(/C=C/c2ccccc2)nc2ccccc21`, the cell number change amounted to 22.2%. The AC50 under setting [1] was 0.82 µM [rising, full curve, poor fit].

In the case of `CCCCNC(=O)CSc1nnc(Cc2ccc(Cl)c(Cl)c2)c(=O)[nH]1`, the cell number change was -18.3%. Besides, the AC50 under setting [2] was 0.0651 µM [falling, full curve, poor fit].

In the case of `Nc1ccccc1SC(C[N+](=O)[O-])c1ccccc1` (centres undefined), the cell number change was -57.9%. Besides, the AC50 under setting [2] was 20.6 µM [falling, single point]. In addition, the AC50 under setting [1] is 16.4 µM [falling, single point].

For the compound `Cc1ccc(C2=C(c3ccc([N+](=O)[O-])cc3)C(=O)OC2)cc1C`, the cell number change came to 46%. For the same compound, under setting [2], the AC50 was 6.51 µM [rising, partial curve]. Further, the AC50 under setting [1] is 7.31 µM [rising, partial curve, poor fit].

Regarding `CCOC(=O)c1cc(-c2ccc(C)cc2)n(CCC(=O)N2CCN(c3ccccn3)CC2)c1C`, the cell number change amounted to 36.9%. Besides, under setting [2], the AC50 is 5.17 µM [rising, partial curve]. The AC50 under setting [1] was 8.2 µM [rising, partial curve].

For `CCOC(=O)/C(=N\Nc1ccccc1Cl)N1CCN(Cc2ccccc2)CC1`, the cell number change is -21.2%. Further, the half-maximal activity concentration (AC50) under setting [1] was 16.4 µM [falling, single point].

On to `O=C1CCCCN1CCCC(=O)N1CCCC(Nc2ccc(F)c(F)c2)C1` (centres undefined), for which the cell number change was -16.1%. For the same compound, under setting [1], the AC50 was 0.82 µM [rising, single point].

On to `c1ccc2[nH]c(CSc3ncnc4c3oc3ccccc34)nc2c1`, for which, under setting [1], the AC50 is 6.51 µM [falling, single point].

Consider `O=C(Nc1ccccc1-c1nnn(CC(=O)N2CCOCC2)n1)c1ccc(F)cc1`, for which the cell number change is -40.8%. In addition, the AC50 under setting [2] is 29.1 µM [falling, single point]. Moreover, the AC50 under setting [1] is 29.1 µM [falling, single point].

As for `CCC1CCCCN1CCCNC(=O)CS(=O)Cc1nc(-c2ccc(OC)c(OC)c2)oc1C` (centres undefined), the cell number change came to 27.4%.

As for `CC(C)C(=O)Nc1ccccc1N1CCN(C(=O)c2ccccc2)CC1`, the cell number change turned out to be 21.9%. The AC50 under setting [1] is 0.58 µM [rising, single point].

Turning to `Cc1cccc(-n2cnc(C(=O)NNC(=S)Nc3ccc(Cl)cc3)c2)n1`, the cell number change was 7.95%. Besides, the AC50 under setting [2] was 4.11 µM [rising, single point].

With `CCOC(=O)[C@H]1[C@H]2COc3ccc(Cl)cc3[C@@H]2N2C(=O)c3cc(Cl)ccc3NC(=O)[C@@]12C`, the cell number change was -36.6%. The AC50 under setting [2] was 16.4 µM [falling, single point].

`COC(=O)c1sc(NC(=O)COc2cccc(C)c2)nc1C`: the cell number change came to 14.6%. For the same compound, under setting [1], the AC50 was 20.6 µM [rising, single point].

As for `COc1ccc(S(=O)(=O)N2CCN(C(=O)c3ccccn3)CC2)cc1`, the cell number change was -101%. The AC50 under setting [2] is 25.9 µM [falling, partial curve, poor fit].

On to `CC(=O)Nc1ccc(-c2csc(NC(=O)C3CC(=O)N(c4ccc5c(c4)OCCO5)C3)n2)cc1` (centres undefined), for which the cell number change was determined as 16.5%. Besides, the AC50 under setting [1] was 1.46 µM [rising, partial curve].

Regarding `C/C(N)=C(/C#N)C(=O)COc1ncnc2ccc(Br)cc12`, the cell number change was 23.5%. The AC50 under setting [1] was 3.26 µM [rising, partial curve].

As for `O=C(NCCc1ccccc1)C(=O)N/N=C/c1ccc2c(c1)OCO2`, the AC50 under setting [2] is 0.731 µM [falling, full curve, poor fit].

In the case of `CCOc1ccc(C(=O)NC2CC3CCCC(C2)N3CC(C)C)cc1` (centres undefined), the cell number change was -39.8%. In addition, under setting [2], the AC50 was 4.61 µM [falling, full curve, poor fit].

Consider `Cc1oc(-c2ccccc2Cl)nc1CN1CCCN(C(=O)c2ccco2)CC1`, for which the cell number change is -1.67%. Also, the AC50 under setting [1] is 0.0058 µM [falling, full curve, poor fit].

On to `COCCNC(=S)N(CCN(C)C)Cc1cc2cc3c(cc2[nH]c1=O)OCO3`, for which the cell number change worked out at 6.93%. Further, the AC50 under setting [1] was 29.1 µM [rising, partial curve, poor fit].

Regarding `CC(C)CN(C(=O)CSc1nc(-c2ccccc2)cn1N)c1c(N)n(Cc2ccccc2)c(=O)[nH]c1=O`, the cell number change stood at 22.2%. For the same compound, under setting [1], the AC50 is 13 µM [rising, partial curve].

As to `CCC(C)Nc1ncnc2c1cnn2Cc1ccc(Cl)cc1` (centres undefined), the cell number change was found to be 1.63%. In addition, the AC50 under setting [2] was 1.03 µM [falling, full curve]. Also, the AC50 under setting [1] is 0.164 µM [rising, full curve, poor fit].

Consider `Cc1nn(C)c(C)c1-c1c(C#N)c(N)nc2c1CCCCCC2`, for which the cell number change came to 13.3%. Further, the AC50 under setting [1] is 9.2 µM [rising, partial curve, poor fit].

As for `CN(C)c1nc(-c2ccccc2)c2cc(Cl)ccc2n1`, the cell number change is -1.53%. The AC50 under setting [1] was 6.51 µM [falling, partial curve].

Consider `COCCn1c(=O)[nH]c2cc(C(=O)NCCCN3CCN(c4ccc(F)cc4)CC3)ccc2c1=O`, for which the cell number change was -3.75%. The AC50 under setting [1] is 29.1 µM [falling, single point].

Turning to `COC(=O)Cc1ccc(OC(=O)CCS(=O)(=O)c2ccc(Cl)cc2)cc1`, the cell number change was -23.8%. The concentration at half-maximal activity (AC50) under setting [1] is 0.651 µM [falling, full curve, poor fit].

`COc1ccc(S(=O)(=O)N2CCOC2CNC(=O)C(=O)NCc2cccnc2)cc1OC` (centres undefined): the cell number change was 20.1%. The AC50 under setting [1] is 11.6 µM [rising, partial curve].

Regarding `CC(C)CC(=O)NC(=S)Nc1ccccc1C(F)(F)F`, the cell number change was -0.987%. Moreover, the AC50 under setting [1] was 0.291 µM [falling, partial curve, poor fit].

For the compound `Cc1nc2ccccn2c1C(=O)NNC(=O)Nc1cccc(C(F)(F)F)c1`, under setting [1], the AC50 is 6.51 µM [falling, single point].

Take `CCOc1ccccc1C(=O)N(C)CC(=O)Nc1ccc(OC)cc1`: the cell number change amounted to 25%. Further, the AC50 under setting [1] is 29.1 µM [rising, single point].

For the compound `CCC(CC)NC(=O)c1cccc(Oc2ccccc2)c1`, the cell number change came out at 0.524%. Moreover, the AC50 under setting [2] is 6.51 µM [falling, single point].

For the compound `O=C(Nc1ccccc1)Nc1cccc(-c2nnco2)c1`, the cell number change is -7.04%. In addition, the AC50 under setting [1] was 29.1 µM [rising, single point].

`COC(=O)c1sc2nc(C)nc(SCC(=O)Nc3sccc3C(N)=O)c2c1C`: the cell number change came to 22.2%. Also, under setting [2], the AC50 was 0.00517 µM [rising, full curve, poor fit]. The AC50 under setting [1] is 0.0184 µM [rising, full curve, poor fit].

`O=S(=O)(c1ccc(-c2cn3ccccc3n2)cc1)N1CCOCC1`: the AC50 under setting [2] was 0.461 µM [rising, full curve].

Turning to `CCc1nc(Nc2ccc3nccnc3c2)c2oc3ccccc3c2n1`, the cell number change was -22%. Further, the AC50 under setting [1] was 14.6 µM [falling, partial curve, poor fit].

Regarding `CC12CCC(C(=O)NCc3ccc(Cl)cc3)(OC1=O)C2(C)C` (centres undefined), the cell number change was -32.4%. Besides, the AC50 under setting [2] was 13 µM [falling, partial curve, poor fit].

Regarding `CC(C)OCCCNC(=O)CN1C(=O)/C(=C/c2ccccc2F)Oc2ccccc21`, the cell number change was found to be 29.6%. Moreover, under setting [1], the half-maximal activity concentration (AC50) is 0.82 µM [rising, full curve].

Regarding `COc1ccc(NC(=O)[C@H](C)NC(=O)C2CCN(S(=O)(=O)c3ccc(OC)cc3)CC2)cc1`, the cell number change was determined as 11.3%. Besides, the AC50 under setting [1] was 6.51 µM [falling, single point].

Turning to `COc1ccccc1N1CCN(C(=O)CSc2nc3ccccc3nc2N2CCC(C)CC2)CC1`, the cell number change is 97.1%. Besides, the AC50 under setting [2] was 23.1 µM [rising, partial curve].
